Measured values published in publication PMC10620127.
These are yes or no findings as the source states them, for the method shown. In cells and extracts the contact can be indirect. Some entries that bind do so weakly or less than the wild type.

Molecular target: T1, interferon regulatory factor 4 (UniProt Q64287)
T1 sequence: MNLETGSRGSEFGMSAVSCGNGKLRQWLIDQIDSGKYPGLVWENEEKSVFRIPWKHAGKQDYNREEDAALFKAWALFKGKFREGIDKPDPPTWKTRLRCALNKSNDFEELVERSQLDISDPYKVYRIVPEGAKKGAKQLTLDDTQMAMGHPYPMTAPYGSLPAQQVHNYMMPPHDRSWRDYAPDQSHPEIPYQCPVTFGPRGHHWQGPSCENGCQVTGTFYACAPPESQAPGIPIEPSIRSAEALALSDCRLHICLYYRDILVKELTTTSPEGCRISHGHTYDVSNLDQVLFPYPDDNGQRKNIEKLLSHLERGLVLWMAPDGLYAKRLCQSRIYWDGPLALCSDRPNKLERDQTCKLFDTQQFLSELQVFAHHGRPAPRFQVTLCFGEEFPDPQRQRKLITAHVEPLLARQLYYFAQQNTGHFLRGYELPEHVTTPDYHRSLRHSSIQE
Test: co-IP; Peli3 and IRF4 constructs transfected into HEK293 cells; lysates after 48 h; precipitated with anti-Flag antibody, Peli3 detected with anti-HA antibody

binding: binds
B1: E3 ubiquitin-protein ligase pellino homolog 3 (enzyme, UniProt Q8BXR6 1-445)
chain: MVLEGNPDVGSPRTSDLQHPGSQGSCILSCPGEEALAGEEPIKYGELIVLGYNGCLASGDKGRRRSRLALSRRPHANGVKPDVMHHISTPLVSKALSNRGQHSISFTLSRSHSVIVEYTHDSDKDMFQIGRSTENMIDFVVTDTSPGGGATEGPSAQSTISRYACRILCDRRPPYTARIYAAGFDASSNIFLGERAAKWRTPDGLMDGLTTNGVLVMHPAGGFSEDSAPGVWREISVCGNVYTLRDSRSAQQRGKLVENESNVLQDGSLIDLCGATLLWRTPAGLLRAPTLKQLEAQRQEANAARPQCPVGLSTLAFPSPARGRTAPDKQQPWVYVRCGHVHGYHGWGCRRERGPQERECPLCRLVGPYVPLWLGQEAGLCLDPGPPSHAFAPCGHVCSEKTARYWAQTPLPHGTHAFHAACPFCGAWLTGELGCVRLIFQGPLD
